From article PMC11107207, “Utility of protein–protein binding surfaces composed of anti-parallel alpha-helices and beta-sheets selected by phage display” (The Journal of Biological Chemistry, 2024)
These are yes or no findings as the source states them, for the method shown. Sequences can lack the tags named with a protein.

By UniProt entry, the sequences of proteins in these tests, tags left out. Residues count along the entry.
UniProt Q3U128, residues 27-492: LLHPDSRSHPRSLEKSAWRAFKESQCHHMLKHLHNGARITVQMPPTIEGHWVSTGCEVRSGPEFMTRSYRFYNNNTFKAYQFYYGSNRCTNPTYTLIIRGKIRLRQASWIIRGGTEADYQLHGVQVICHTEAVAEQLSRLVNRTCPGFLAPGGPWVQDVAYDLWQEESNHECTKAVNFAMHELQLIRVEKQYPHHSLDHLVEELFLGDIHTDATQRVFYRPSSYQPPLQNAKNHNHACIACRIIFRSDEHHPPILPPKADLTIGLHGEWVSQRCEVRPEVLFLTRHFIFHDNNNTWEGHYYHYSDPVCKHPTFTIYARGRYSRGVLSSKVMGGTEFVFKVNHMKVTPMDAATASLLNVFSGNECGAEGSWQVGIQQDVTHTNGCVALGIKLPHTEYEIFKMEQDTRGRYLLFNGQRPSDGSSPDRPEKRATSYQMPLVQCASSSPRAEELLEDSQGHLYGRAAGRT

Target: APCDD1 bait fused to the C terminus of Fc (mouse) (UniProt Q3U128)
Assay: SPR; Biacore, single-cycle kinetics/affinity, five-point dose response; bait-Fc on a proteinG chip; CC4-MBP in the mobile phase; done at Cayman Chemical; both purified

binding: no binding (tested: KD >50 μM)
B1: WT CC4-MBP (domain or fragment, mouse)
chain: PMRNPTDSLYCCDRAEDHACQNACKRILMSKKTEMEIVDGLIEGCKTQPLPQDPLWQCFLESSQS
notes: mouse RECK, CC domain 4 (CC4), a 4-helix bundle of 65 amino acids; also called RECK(CC4); source: E. coli SHuffle, purified (Ni-NTA)
